In patent EP4778539A1:
No constants are given. Whether binding was seen depends on the method and setting. Some entries that bind do so weakly or less than the wild type.

What was measured:
[1] = target: T1, human CAPRIN-1 on the cell membrane surface of human cancer cells (human) (UniProt Q14444); assay: flow cytometry, human cancer cells
T1 sequence (looked up): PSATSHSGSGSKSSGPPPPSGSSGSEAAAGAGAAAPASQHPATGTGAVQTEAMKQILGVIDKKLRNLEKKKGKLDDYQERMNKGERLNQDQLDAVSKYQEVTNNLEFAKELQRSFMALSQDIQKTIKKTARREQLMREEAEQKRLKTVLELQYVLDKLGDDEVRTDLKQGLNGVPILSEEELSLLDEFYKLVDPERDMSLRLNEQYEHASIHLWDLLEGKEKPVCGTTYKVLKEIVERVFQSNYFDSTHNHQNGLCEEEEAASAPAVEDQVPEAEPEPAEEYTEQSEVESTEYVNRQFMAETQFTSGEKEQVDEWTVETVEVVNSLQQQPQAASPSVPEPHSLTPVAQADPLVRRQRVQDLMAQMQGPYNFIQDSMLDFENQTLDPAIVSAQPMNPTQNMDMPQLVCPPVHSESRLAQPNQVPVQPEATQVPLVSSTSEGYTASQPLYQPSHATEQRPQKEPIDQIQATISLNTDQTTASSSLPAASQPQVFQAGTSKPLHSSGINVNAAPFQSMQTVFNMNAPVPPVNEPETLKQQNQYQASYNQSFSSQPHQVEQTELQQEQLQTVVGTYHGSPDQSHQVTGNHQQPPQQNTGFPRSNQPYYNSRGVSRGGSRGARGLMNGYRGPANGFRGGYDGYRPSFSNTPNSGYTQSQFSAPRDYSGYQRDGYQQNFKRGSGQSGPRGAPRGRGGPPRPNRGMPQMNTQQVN

[2] = target: T1, human CAPRIN-1 on the cell membrane surface of human cancer cells (human); assay: flow cytometry, HT29
[3] = target: T2, mouse CAPRIN-1 on the cell membrane surface of mouse cancer cells (mouse) (UniProt Q60865); assay: flow cytometry, mouse cancer cells
T2 sequence (looked up): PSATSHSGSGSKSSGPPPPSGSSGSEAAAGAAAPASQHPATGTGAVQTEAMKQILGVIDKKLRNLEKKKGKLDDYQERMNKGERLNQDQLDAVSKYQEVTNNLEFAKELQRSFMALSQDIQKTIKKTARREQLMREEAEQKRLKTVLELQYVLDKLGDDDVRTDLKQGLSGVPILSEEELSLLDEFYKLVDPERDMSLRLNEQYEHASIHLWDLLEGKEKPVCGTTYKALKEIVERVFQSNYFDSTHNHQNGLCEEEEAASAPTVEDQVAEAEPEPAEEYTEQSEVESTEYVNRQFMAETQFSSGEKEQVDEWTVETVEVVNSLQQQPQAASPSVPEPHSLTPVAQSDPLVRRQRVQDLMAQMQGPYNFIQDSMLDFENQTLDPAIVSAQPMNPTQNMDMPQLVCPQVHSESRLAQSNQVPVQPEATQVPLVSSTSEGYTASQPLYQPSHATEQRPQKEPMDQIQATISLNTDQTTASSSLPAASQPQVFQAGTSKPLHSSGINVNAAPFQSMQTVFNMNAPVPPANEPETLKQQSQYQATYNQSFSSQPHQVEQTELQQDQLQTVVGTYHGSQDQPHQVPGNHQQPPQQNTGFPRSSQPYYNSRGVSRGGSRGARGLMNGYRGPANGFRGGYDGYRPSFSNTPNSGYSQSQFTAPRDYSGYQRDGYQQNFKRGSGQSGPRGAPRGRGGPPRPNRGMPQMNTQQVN

[4] = target: T2, mouse CAPRIN-1 on the cell membrane surface of mouse cancer cells (mouse); assay: flow cytometry, 4T1

Measured: binding

B1: F(ab')2 complex #72 (protein)
VH: EVQLVESGGGLVQPGGSLRLSCAASGFSLSSHSLGWVRQAPGKGLEWIGDIRSGGSAYYANWAKGRFTISRDNSKNTLYLQMNSLRAEDTAVYFCTRTNGPSDLTNRLDLWGQGTLVTVSS
VL: EIVLTQSPSSLSASVGDRVTINCQASQSLYNNENLAWFQQKPGKVPKRLIYGASTLASGVSSRFSGSGSGTEFTLTISNLQPEDFATYYCLGEFSCGSADCFAFGGGTKVEIK
binds: all assays above

B2: F(ab')2 complex #73 (protein)
VH: EVQLVESGGGLVQPGGSLRLSCAASGFSLSSHSLGWVRQAPGKGLEWIGDIRSGGSAYYANWAKGRFTISRDNSKNTLYLQMNSLRAEDTAVYYCTRTNGPSDLTNRLDLWGQGTLVTVSS
VL: EIVLTQSPSSLSASVGDRVTINCQASQSLYNNENLAWFQQKPGKVPKRLIYGASTLASGVSSRFSGSGSGTEFTLTISNLQPEDFATYYCLGEFSCGSADCFAFGGGTKVEIK
binds: all assays above

B3: F(ab')2 complex #74 (protein)
VH: EVQLVESGGGLVQPGGSLRLSCAASGFSLSSHSLGWVRQAPGKGLEWIGDIRSGGSAYYANWAKGRFTISRDNSKNTLYLQMNSLRAEDTAVYFCTRTNGPSDLTNRLDLWGQGTLVTVSS
VL: EQVLTQSPSSLSASVGDRVTINCQASQSLYNNENLAWFQQKPGKVPKRLIYGASTLASGVSSRFSGSGSGTEFTLTISNLQPEDFAIYYCLGEFSCGSADCFAFGGGTKVEIK
binds: all assays above

B4: humanized antibody complex #13 (antibody, human IgG1, V domains shown)
VH: GAELVRSGASVKMSCKASGYSFTDYNMYWVKQTPGQGLEWIGYIYPGNGGTNYNQKFKGKATLTADTSSSTAYMQISSLTSEDSAVYFCARDYDDGGYAMDYWGQGTTVTVSS
VL: DIQMTQSPASLSASVGETVTITCRASGNIHNYLTWYQQKQGKSPQLLVYNAKTLADGVPSRFSGSGSGTQYSLKINRLQPEDFGSYYCQHFWNIPWTFGGGTKLNSR
binds: all assays above

B5: humanized antibody complex #14 (antibody, human IgG1, V domains shown)
VH: DAELVKPGASVKISCKASGYTFTDHSIHWVQQKPEQGLEWIGYISPGNGNIKYNEKFKGKATLTADKSSSTAYMQLNSLTSEDSAVYFCKRSLGRGGPYYFDYWGQGTTVTVSS
VL: DIVLTQAAPSLPVTPGESVSISCRSSKSLLHSNGNTYLYWFLQRPGQSPQLLIYRMSNLASGVPDRFSGSGSGTAFTLRISRVEAEDVGVYYCMQHREYPVTFGSGPN
binds: all assays above

B6: humanized antibody complex #30 (antibody, human IgG1, V domains shown)
VH: GPDLVKPGASVKISCKASGYSFTAYYMHWVKQSHGKSLEWIGRVNPNNGGTTYNQKFKGKAILTVDKSSSTAYMELRSLTFEDSAVYYCARRIYYGYFDYWGQGTTVTVSS
VL: AFFAVSLGQRATISCKASQSVDYDGDSYMNWYQQKPGQPPKLLIYVASNLESGVPARFSGSGSGTDFTLNIHPVEEEDAATYYCQQSNEDPYTFGGGTKLEIKQ
binds: all assays above

B7: humanized antibody complex #36 (antibody, human IgG1, V domains shown)
VH: EVQLVESGGGLVQPGGSLRLSCAASGFSLSSHSLGWVRQAPGKGLEWIGDIRSGGSAYYANWAKGRFTISRDNSKNTLYLQMNSLRAEDTAVYYCTRTNGPSDLTNRLDLWGQGTLVTVSS
VL: QVLTQSPSSLSASVGDRVTINCQASQSLYNNENLAWFQQKPGKVPKRLIYGASTLASGVSSRFSGSGSGTEFTLTISSLQCEDFAIYYCLGEFSCGSADCFAFGGGTKVEIK
binds: all assays above

B8: humanized antibody complex #37 (antibody, human IgG1, V domains shown)
VH: EVQLVESGGGLVQPGGSLRLSCAASGFSLSSHSLGWVRQAPGKGLEWIGDIRSGGSAYYANWAKGRFTISRDNSKNTLYLQMNSLRAEDTAVYFCTRTNGPSDLTNRLDLWGQGTLVTVSS
VL: QVLTQSPSSLSASVGDRVTINCQASQSLYNNENLAWFQQKPGKVPKRLIYGASTLASGVSSRFSGSGSGTEFTLTISSLQCEDFAIYYCLGEFSCGSADCFAFGGGTKVEIK
binds: all assays above

B9: humanized antibody complex #38 (antibody, human IgG1, V domains shown)
VH: EVQLVESGGGLVQPGGSLRLSCAASGFSLSSHSLGWVRQAPGKGLEWIGDIRSGGSAYYANWAKGRFTISRDNSKNTLYLQMNSLRAEDTAVYYCTRTNGPSDLTNRLDLWGQGTLVTVSS
VL: EQVLTQSPSSLSASVGDRVTINCQASQSLYNNENLAWFQQKPGKVPKRLIYGASTLASGVSSRFSGSGSGTEFTLTISNLQPEDFAIYYCLGEFSCGSADCFAFGGGTKVEIK
binds: all assays above

B10: humanized antibody complex #39 (antibody, human IgG1, V domains shown)
VH: EVQLVESGGGLVQPGGSLRLSCAASGFSLSSHSLGWVRQAPGKGLEWIGDIRSGGSAYYANWAKGRFTISRDNSKNTLYLQMNSLRAEDTAVYFCTRTNGPSDLTNRLDLWGQGTLVTVSS
VL: EIVLTQSPSSLSASVGDRVTINCQASQSLYNNENLAWFQQKPGKVPKRLIYGASTLASGVSSRFSGSGSGTEFTLTISNLQPEDFATYYCLGEFSCGSADCFAFGGGTKVEIK
binds: all assays above

B11: humanized antibody complex #40 (antibody, human IgG1, V domains shown)
VH: EVQLVESGGGLVQPGGSLRLSCAASGFSLSSHSLGWVRQAPGKGLEWIGDIRSGGSAYYANWAKGRFTISRDNSKNTLYLQMNSLRAEDTAVYYCTRTNGPSDLTNRLDLWGQGTLVTVSS
VL: EIVLTQSPSSLSASVGDRVTINCQASQSLYNNENLAWFQQKPGKVPKRLIYGASTLASGVSSRFSGSGSGTEFTLTISNLQPEDFATYYCLGEFSCGSADCFAFGGGTKVEIK
binds: all assays above

B12: humanized antibody complex #41 (antibody, human IgG1, V domains shown)
VH: EVQLVESGGGLVQPGGSLRLSCAASGFSLSSHSLGWVRQAPGKGLEWIGDIRSGGSAYYANWAKGRFTISRDNSKNTLYLQMNSLRAEDTAVYFCTRTNGPSDLTNRLDLWGQGTLVTVSS
VL: EQVLTQSPSSLSASVGDRVTINCQASQSLYNNENLAWFQQKPGKVPKRLIYGASTLASGVSSRFSGSGSGTEFTLTISNLQPEDFAIYYCLGEFSCGSADCFAFGGGTKVEIK
binds: all assays above

B13: humanized antibody complex #42 (antibody, human IgG1, V domains shown)
VH: AVTLDESGGGLQTPGGALSLVCKASGFTFSGYDMLWVRQAPGKGLEWVAGIGSTGGGTDYGAAVKGRATISRDNGQSTVRLQLNNLRAEDTATYYCAKVAGGCNSGYCRDSPGSIDAWGHGTEVIVS
VL: AVTQQPASVSANPGETVKITCSGGGSRNYYGWYQQKSPGSVPVTVIYYDDQRPSNIPSRFSGALSGSTSTLTITGVQADDEAVYFCGSADSNTYEGSFGAGTTLTVL
binds: all assays above
